In PubChem BioAssay AID588497 (NMMLSC, 2011):
Among all 360,000 compounds or so, about 780 (0.22%) were called active. Inconclusive results, whose numbers are uncertain, are shown with a selection of clear calls. Rule as the data show it: active = inhibition above about 35% (passing the limit was not always enough); inconclusive = no clear call, values can overlap the other calls.

System: Botulinum neurotoxin type F light chain protease (Clostridium botulinum)
Test: BoNT/F light chain protease inhibitors, primary screen, biochemical, flow cytometry, MLPCN library (AID 588497); also: plate controls were buffer without enzyme for full effect and enzyme alone for no effect
Conditions: Multiplex microsphere protease cleavage assay, at 10 µM, hits give high values

Row | SMILES | inhibition
1 | O=S(=O)(O)c1cccc2c(N=Nc3ccc(O)c4ncccc34)cccc12 | inactive: -64.4%
2 | Cc1cc(N2CCCCC2)n2nc(C)c(-c3ccccc3)c2n1 | inconclusive: -10.2%
3 | N#CC1=C(N)N2C(=C(C#N)C13CCCCC3)SC1CCCCC12O (stereo unspecified) | inactive: -0.1%
4 | O=c1cc[nH]c2ccc(OC(F)(F)F)cc12 | inconclusive: 12.8%
5 | COCCOC(=O)c1c(C)nc(SCC(=O)Nc2ccc(OC)cc2)c(C#N)c1-c1ccco1 | inconclusive: 3.5%
6 | Cc1ccccc1NC(=O)CN(c1ccc(F)cc1)S(C)(=O)=O | active: 42.4%
7 | CCCNC(=S)Nc1ccccc1 | inconclusive: -20%
8 | CCc1nnc(N/N=C/c2c(F)cccc2Cl)n1N | inconclusive: 4.2%
9 | c1ccc(N2CCOCCOCCOCCOCC2)cc1 | inconclusive: 6.6%
10 | O=CN1CCN(C(=O)CC(c2ccccc2)c2cc(Br)ccc2O)CC1 (stereo unspecified) | inconclusive: 18%
11 | COC(=O)C1=C(C)N=c2s/c(=C/c3ccoc3)c(=O)n2C1c1ccccc1 (stereo unspecified) | inactive: 4.6%
12 | CN(Cc1ccc(Cl)cc1)C(=O)COC(=O)CSc1ccc([N+](=O)[O-])cc1 | inconclusive: -9.2%
13 | O=C(CNc1cccc2ccccc12)c1ccc([N+](=O)[O-])cc1 | inactive: -7.6%
14 | Cc1cc(C)nc(N/N=C/C=C/c2ccccc2)n1 | inactive: 1.4%
15 | N=c1cc(C2(O)CCCCC2)n2c(nc3ccccc32)s1 | inconclusive: -10.8%
16 | Fc1ccc(Cn2cnc3ccccc32)cc1 | inactive: 5.9%
17 | Cc1ccn(-c2ccc(NC(=O)c3cccs3)cc2)n1 | inactive: -4.2%
18 | COc1cc(C(=O)NN2C(=O)NC3(CCC(C)CC3)C2=O)ccc1OC(F)F (stereo unspecified) | inactive: 2.7%
19 | CC(=O)/C(=C\N(C)C)Sc1ccc(Cl)cc1 | inconclusive: 17.1%
20 | CC(=O)c1c(COC(=O)c2cccc(C)c2)nc2ccccc2[n+]1[O-] | inconclusive: -15.2%
21 | NNC(=O)/C(=C\c1ccco1)NC(=O)c1ccco1 | inconclusive: -30.9%
22 | COc1cccc2[nH]c3c(=O)[nH]cnc3c12 | inconclusive: -15.5%
23 | Cc1ccsc1C(=O)N1CCC1(C)C(=O)NS(=O)(=O)c1ccccc1C(F)(F)F (stereo unspecified) | inactive: -4.6%
24 | CCOc1cccc(N2C(=O)CC(N3CCN(c4ccc(S(=O)(=O)CC)cc4)CC3)C2=O)c1 (stereo unspecified) | inactive: 2.9%

Row | SMILES | inhibition
25 | CN1CCN(C2=NCCO2)CC1 | inconclusive: -16.1%
26 | Nc1nonc1NN=C1CCCCC1 | inconclusive: -130%
27 | Cc1ccc(-c2csc(NC(=O)C[n+]3cc(-c4ccc(C)cc4)n4c3CCC4)n2)cc1 | inconclusive: 111%
28 | Nc1nonc1C(=O)NCCNc1ccc([N+](=O)[O-])cc1 | inconclusive: -59.3%
29 | O=C(COc1ccc(Cl)cc1Cl)N/N=C1\CCCc2ccccc21 | inactive: 3.2%
30 | COc1ccccc1CNC(=O)COc1ccccc1OC | inconclusive: 14.9%
31 | CCN(CC)CCCNC(=O)c1cc2c(-c3ccc(Cl)cc3)nn(C)c2s1 | inactive: -10.1%
32 | CC/C(=N\NC(=O)Nc1nonc1N)c1ccc(OC)c(OC)c1 | inconclusive: -55.2%
33 | COC(=O)C1(C#N)C(c2ccccc2)C1(C(=O)OC)C(=O)OC (stereo unspecified) | inactive: -7.2%
34 | CCCCc1cc(=O)oc2cc(OC(C)C(=O)NCCN3CCOCC3)ccc12 (stereo unspecified) | inactive: 1.4%
35 | Cc1cccc(C2=NN(c3ccccc3)[C@@H](C(=O)N3CCOC3=O)[C@@H]2c2ccccc2)c1 | inactive: -2.3%
36 | CN(c1ccccc1)c1nccc(=O)[nH]1 | inconclusive: -34.5%
37 | CC(=O)C1=C(O)C(=O)N(c2ccc(O)cc2)C1c1ccccc1Cl (stereo unspecified) | inconclusive: 4.8%
38 | O=C(NCc1ccc(F)cc1)c1cnccn1 | inconclusive: -9.8%
39 | Cc1cc(NC(=O)c2cccc([N+](=O)[O-])c2)no1 | inconclusive: -58.6%
40 | O=C(Nc1ccccc1C(=O)Nc1ccc(Br)cn1)c1cccc([N+](=O)[O-])c1 | inconclusive: 28%
41 | O=C(Cc1ccccc1)N/N=C/c1ccc(S(=O)(=O)O)o1 | inconclusive: -61.2%
42 | Cc1cc(C)cc(OCCOc2cccc(C=C3C(=O)NC(=O)NC3=O)c2)c1 | inconclusive: 10.2%
43 | CC(O)c1nc2c(c(=O)n(C)c(=O)n2C)n1C (stereo unspecified) | inactive: 7.6%
44 | CNc1cnn(-c2ccccc2)c(=O)c1Cl | inactive: -13.3%
45 | Cc1cccc(NC(=O)c2ccc(N3CCCCC3)c([N+](=O)[O-])c2)n1 | inactive: -7.3%
46 | CCOC(=O)C(=N/O)/C(C)=N/NC(=O)C(=O)Nc1ccc(Cl)cc1 | inconclusive: -133%
47 | CN1C(=O)NC(=O)[C@]2(Cc3ccccc3N3CCN(c4ccccc4)CC32)C1=O (stereo partly specified) | inactive: -1.1%
48 | O=C(CCN=C1NS(=O)(=O)c2ccccc21)OCc1cccc(Cl)c1 | inconclusive: 9.6%

Of the compounds above, two contain bromine:
Row | SMILES | inhibition
10 | O=CN1CCN(C(=O)CC(c2ccccc2)c2cc(Br)ccc2O)CC1 (stereo unspecified) | inconclusive: 18%
40 | O=C(Nc1ccccc1C(=O)Nc1ccc(Br)cn1)c1cccc([N+](=O)[O-])c1 | inconclusive: 28%

Going on with the list.

Row | SMILES | inhibition
49 | CC1Sc2ccc(C(=O)O)cc2NC1=O (stereo unspecified) | inconclusive: 4.7%
50 | Cn1c(SCC(N)=O)nnc1C1CCN(C(=O)NCc2ccccc2)CC1 | inconclusive: -18.5%
51 | COc1ccc(NC(=O)C2Cc3c(-c4cccc(NC(C)=O)c4)ccnc3O2)cc1 (stereo unspecified) | inactive: 2%
52 | CCOC(=O)c1c(C)nc2c(c1-c1cc(OC)ccc1OC)C(=O)CC(C)(C)C2 | inconclusive: -6.5%
53 | CN(C1=C(N2CCOCC2)C(=O)c2ccccc2C1=O)c1ccccc1 | inactive: -0.1%
54 | O=C(NNc1cc(Cl)cc(Cl)c1)c1c(F)cccc1Cl | inconclusive: 6.6%
55 | COc1ccc(-n2cccc2C=O)cc1 | inactive: -5.4%
56 | COc1ccc(CNC(=O)c2c[nH]c3ccccc3c2=O)cc1 | inconclusive: 6.7%
57 | COc1ccc(F)cc1S(=O)(=O)Nc1ccncc1 | inconclusive: -55.1%
58 | CC1CC(C)CN(C(=O)c2cccc(S(=O)(=O)N(C)c3ccccc3)c2)C1 (stereo unspecified) | inconclusive: 26.7%
59 | CCOP(=O)(OCC)C(O)c1ccc(OC)cc1 (stereo unspecified) | inconclusive: -9.7%
60 | NC(=S)Nc1ccc(F)cc1F | inconclusive: -79.5%
61 | COc1ccc(C2CC(=O)N(c3ccccc3)C3=C2C(=O)CCC3)cc1 (stereo unspecified) | inconclusive: 11.7%
62 | O=C(Nc1cccc2cccnc12)c1ccccc1Cl | inconclusive: -22%
63 | COC(=O)[C@]12CCCCC=C1N(CCC1=CCCCC1)C(=O)[C@H](CC(=O)NCCCN1CCCC1=O)C2 | inactive: -10.5%
64 | COc1ccc(-c2n[nH]c(=S)n2-c2ccc(Br)cc2)cc1OC | inconclusive: -17.8%
65 | OCc1ccc(O)c2ncccc12 | inactive: -4.7%
66 | COc1ccc(CNC(=O)CSc2ccc(Br)cc2)cc1OC | inactive: -5.2%
67 | Cc1c(NC(=O)C(C)OC(=O)c2sc3ccccc3c2Cl)c(=O)n(-c2ccccc2)n1C (stereo unspecified) | inactive: -5.1%
68 | CCOC(=O)NC(=S)Nc1ccc(C(C)(C)C)cc1 | inconclusive: 19.9%
69 | c1ccc2c(c1)nc(N1CCCCC1)c1ccccc12 | inconclusive: -71.8%
70 | COc1ccc(OCc2nnc(SCC(N)=O)n2N)cc1 | inactive: 4%
71 | COc1ccc(CCN(C)CC(=O)Nc2c(C)cc(C)cc2C)cc1OC | inconclusive: -20.1%
72 | CCCn1nnc(NC(=O)C(C)C)n1 | inconclusive: -70%

Compounds above that contain sulfur (26):
Row | SMILES | inhibition
1 | O=S(=O)(O)c1cccc2c(N=Nc3ccc(O)c4ncccc34)cccc12 | inactive: -64.4%
3 | N#CC1=C(N)N2C(=C(C#N)C13CCCCC3)SC1CCCCC12O (stereo unspecified) | inactive: -0.1%
5 | COCCOC(=O)c1c(C)nc(SCC(=O)Nc2ccc(OC)cc2)c(C#N)c1-c1ccco1 | inconclusive: 3.5%
6 | Cc1ccccc1NC(=O)CN(c1ccc(F)cc1)S(C)(=O)=O | active: 42.4%
7 | CCCNC(=S)Nc1ccccc1 | inconclusive: -20%
11 | COC(=O)C1=C(C)N=c2s/c(=C/c3ccoc3)c(=O)n2C1c1ccccc1 (stereo unspecified) | inactive: 4.6%
12 | CN(Cc1ccc(Cl)cc1)C(=O)COC(=O)CSc1ccc([N+](=O)[O-])cc1 | inconclusive: -9.2%
15 | N=c1cc(C2(O)CCCCC2)n2c(nc3ccccc32)s1 | inconclusive: -10.8%
17 | Cc1ccn(-c2ccc(NC(=O)c3cccs3)cc2)n1 | inactive: -4.2%
19 | CC(=O)/C(=C\N(C)C)Sc1ccc(Cl)cc1 | inconclusive: 17.1%
23 | Cc1ccsc1C(=O)N1CCC1(C)C(=O)NS(=O)(=O)c1ccccc1C(F)(F)F (stereo unspecified) | inactive: -4.6%
24 | CCOc1cccc(N2C(=O)CC(N3CCN(c4ccc(S(=O)(=O)CC)cc4)CC3)C2=O)c1 (stereo unspecified) | inactive: 2.9%
27 | Cc1ccc(-c2csc(NC(=O)C[n+]3cc(-c4ccc(C)cc4)n4c3CCC4)n2)cc1 | inconclusive: 111%
31 | CCN(CC)CCCNC(=O)c1cc2c(-c3ccc(Cl)cc3)nn(C)c2s1 | inactive: -10.1%
41 | O=C(Cc1ccccc1)N/N=C/c1ccc(S(=O)(=O)O)o1 | inconclusive: -61.2%
48 | O=C(CCN=C1NS(=O)(=O)c2ccccc21)OCc1cccc(Cl)c1 | inconclusive: 9.6%
49 | CC1Sc2ccc(C(=O)O)cc2NC1=O (stereo unspecified) | inconclusive: 4.7%
50 | Cn1c(SCC(N)=O)nnc1C1CCN(C(=O)NCc2ccccc2)CC1 | inconclusive: -18.5%
57 | COc1ccc(F)cc1S(=O)(=O)Nc1ccncc1 | inconclusive: -55.1%
58 | CC1CC(C)CN(C(=O)c2cccc(S(=O)(=O)N(C)c3ccccc3)c2)C1 (stereo unspecified) | inconclusive: 26.7%
60 | NC(=S)Nc1ccc(F)cc1F | inconclusive: -79.5%
64 | COc1ccc(-c2n[nH]c(=S)n2-c2ccc(Br)cc2)cc1OC | inconclusive: -17.8%
66 | COc1ccc(CNC(=O)CSc2ccc(Br)cc2)cc1OC | inactive: -5.2%
67 | Cc1c(NC(=O)C(C)OC(=O)c2sc3ccccc3c2Cl)c(=O)n(-c2ccccc2)n1C (stereo unspecified) | inactive: -5.1%
68 | CCOC(=O)NC(=S)Nc1ccc(C(C)(C)C)cc1 | inconclusive: 19.9%
70 | COc1ccc(OCc2nnc(SCC(N)=O)n2N)cc1 | inactive: 4%

Further structures follow:

Row | SMILES | inhibition
73 | Cc1nn(CCOc2ccccc2)c(=O)n1-c1ccc(F)cc1 | inactive: 1.4%
74 | Clc1cccc(-c2nnc(-c3ccno3)o2)c1 | inconclusive: -51.8%
75 | Cc1cc(C)nc(N/N=C/c2cn[nH]c2-c2ccc(F)cc2)n1 | inconclusive: -14.3%
76 | CC1CN(C)C(C)CC1OC(=O)C(c1ccccc1)c1ccccc1 (stereo unspecified) | inconclusive: -21.6%
77 | COC(=O)C1=C(C)NC(C)=C(C(=O)OC)C1c1ccc(C)o1 | inconclusive: 88.4%
78 | CCCCN(c1nc2ccccc2nc1Cl)S(=O)(=O)c1ccc(C)cc1 | inactive: -26.5%
79 | OCC1(Cc2ccccc2F)CCCN(CC2CCCCC2)C1 (stereo unspecified) | inconclusive: 61.2%
80 | COc1ccc2[nH]c(=O)c(CN(C(=O)C(C)C)c3ccccc3OC)cc2c1 | inconclusive: 10.1%
81 | COc1ccc(C(=O)Nc2ccc(Nc3ccccc3)cc2)cc1Br | inconclusive: -50.8%
82 | O=C(Cn1c(N2CCN(c3ccccc3)CC2)nc2ccccc21)c1ccccc1 | inconclusive: 1.3%
83 | CCSc1nsc(NC(=O)Nc2ccccc2F)n1 | inconclusive: 16.6%
84 | COc1ccc(OC)c(/C=C/c2nc3ccccc3[nH]c2=O)c1 | inconclusive: -0.5%
85 | CC(C)=NNC1=NC(C)(C)Cc2ccccc21 | inconclusive: -59.7%
86 | CC1Oc2ccccc2N(CC(=O)NC2CCCC2)C1=O (stereo unspecified) | active: 35.4%
87 | CCOc1cc2c(Cl)ncnc2c(OCC)c1OCC | inconclusive: 6.4%
88 | CC[C@@]1(C(=O)OC)N[C@H](CN(C)C(=O)COC)[C@@H]2C(=O)N(Cc3ccccc3)C(=O)[C@@H]21 | inactive: -7%
89 | CCCNC(=O)c1ccccc1NC(=O)c1ccccc1N(C)S(=O)(=O)c1ccc(C)cc1 | active: 38.3%
90 | Cn1ccc(/C=N/N=C2/NC(=O)CS2)n1 | inconclusive: 12.8%
91 | S=c1[nH]nc(-c2cc(-c3ccccc3)n[nH]2)n1/N=C/C=C/c1ccco1 | inconclusive: -82.4%
92 | COc1ccc2[nH]cc(CCNC(=O)c3ccccc3Cl)c2c1 | inconclusive: 8.6%
93 | COc1ccc2c(c1OC)C(=O)OC2C1c2cc3c(cc2CCN1C)OCO3 (stereo unspecified) | inconclusive: 13.5%
94 | COCCC(=O)N1CCCC(C(=O)c2ccccc2SC)C1 (stereo unspecified) | inconclusive: -9%
95 | Fc1ccc(/C=N\Nc2cccc(F)c2)cc1 | inconclusive: -12.2%
96 | O=C(O)c1ccc(CSc2nc3c(c(=O)[nH]2)CCC3)cc1 | inactive: -1.4%
